Data as given in PubChem BioAssay AID1508588 (Peter MacCallum Cancer Centre, 2020).
Aim: 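Genome-wide search for knock-downs that heighten vemurafenib action in melanoma cells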 (primary screen). System: human WM266.4 melanoma cells (BRAF V600 mutant). Knock-down reagent: siRNA pool against human genes, 40 nM. Duration: 96 h from transfection to read-out. Conditions: vemurafenib 300 nM (about IC25), added 48 h after transfection, for 48 h; comparison arm got DMSO vehicle only. Measured: 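Ratios to non-targeting siRNA for cell gain, counted as DAPI nuclei after minus before drug and averaged over two replicates, and for absorbance-read medium lactate per cell; both binned into fold-change classes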. Reading the numbers: cell gain with vemurafenib: higher = more cell gain than with non-targeting siRNA; lactate per cell with vemurafenib: higher = more lactate made per cell. Hit rule: 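Enhancement is called by pairing each knock-down's vehicle-arm and drug-arm fold-change classes for viability or glycolysis; which class combinations qualify is not given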. Calls: active = enhances vemurafenib effect; inactive = no enhancement seen.
The whole screen tested about 18,000 reagents; this is an unselected part. 790 of them (4.4%) count as active. 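Calls rest on a combination of fold-change classes in drug and vehicle arms, not all shown here.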

Knock-down of SLC46A2 gave: cell gain with vemurafenib 0.39; lactate per cell with vemurafenib 0.36; inactive.
PSG6 gave cell gain with vemurafenib 0.65; lactate per cell with vemurafenib 0.55; inactive.
Against LRATD2, the values are cell gain with vemurafenib 0.86; lactate per cell with vemurafenib 0.56; inactive.
Against WDR47, the entry reads cell gain with vemurafenib 0.61; lactate per cell with vemurafenib 1.24; inactive.
With knock-down of WIPF2, the screen gave cell gain with vemurafenib 0.4; lactate per cell with vemurafenib 0.55; inactive.
Against RRP1B, the values are cell gain with vemurafenib 0.6; lactate per cell with vemurafenib 0.74; inactive.
Depletion of PXN gave: cell gain with vemurafenib 0.59; lactate per cell with vemurafenib 0.55; inactive.
For RPUSD3 the deposit lists cell gain with vemurafenib 0.73; lactate per cell with vemurafenib 0.68; inactive.
Depletion of POM121 gave: cell gain with vemurafenib 0.39; lactate per cell with vemurafenib 0.65; inactive.
For NIPBL the deposit lists cell gain with vemurafenib 0.21; lactate per cell with vemurafenib 2.19; inactive.
Depletion of HSFY1 resulted in: cell gain with vemurafenib 0.86; lactate per cell with vemurafenib 0.91; inactive.
Against WASHC4, the entry reads cell gain with vemurafenib 0.07; lactate per cell with vemurafenib 1.12; inactive.
RHOT2 scored cell gain with vemurafenib 0.73; lactate per cell with vemurafenib 0.95; inactive.
For POLR3D, the entry reads cell gain with vemurafenib 0.85; lactate per cell with vemurafenib 0.88; inactive.
Depletion of LRRC20 resulted in: cell gain with vemurafenib 0.46; lactate per cell with vemurafenib 2.2; inactive.
Against CIAO2B, the entry reads cell gain with vemurafenib 0.98; lactate per cell with vemurafenib 0.88; inactive.
Silencing of CELF6 gave: cell gain with vemurafenib 1.25; lactate per cell with vemurafenib 0.44; inactive.
UCN scored cell gain with vemurafenib 0.53; lactate per cell with vemurafenib 0.55; inactive.
For ACP4 the deposit lists cell gain with vemurafenib 0.56; lactate per cell with vemurafenib 0.79; inactive.
For FOXA1, the entry reads cell gain with vemurafenib 0.03; lactate per cell with vemurafenib 2.69; inactive.
ANAPC11 showed cell gain with vemurafenib 0.98; lactate per cell with vemurafenib 1.17; inactive.
With knock-down of GSTO1, the record shows cell gain with vemurafenib 1; lactate per cell with vemurafenib 0.62; inactive.
MGST3 showed cell gain with vemurafenib 0.62; lactate per cell with vemurafenib 0.42; active.
After knock-down of HTR6 the results were cell gain with vemurafenib 0.53; lactate per cell with vemurafenib 1.67; inactive.
Silencing of SMAP1 resulted in: cell gain with vemurafenib 0.52; lactate per cell with vemurafenib 0.9; inactive.
With knock-down of TRIM17 the results were cell gain with vemurafenib 0.99; lactate per cell with vemurafenib 0.7; inactive.
Depletion of B3GALT1 resulted in: cell gain with vemurafenib 0.62; lactate per cell with vemurafenib 1.31; inactive.
After knock-down of CIB2, the record shows cell gain with vemurafenib 0.45; lactate per cell with vemurafenib 0.69; active.
Knock-down of NPAT came out at: cell gain with vemurafenib 0.52; lactate per cell with vemurafenib 1.75; inactive.
Depletion of CITED4 came out at: cell gain with vemurafenib 1.14; lactate per cell with vemurafenib 1.14; inactive.
Against RBPMS the deposit lists cell gain with vemurafenib 0.11; lactate per cell with vemurafenib 1.15; inactive.
With knock-down of STPG4, the screen gave cell gain with vemurafenib 0.18; lactate per cell with vemurafenib 0.91; active.
Knock-down of GINS2 resulted in: cell gain with vemurafenib 0.34; lactate per cell with vemurafenib 2.27; inactive.
Knock-down of PAQR9 resulted in: cell gain with vemurafenib 0.35; lactate per cell with vemurafenib 1.5; inactive.
After knock-down of XTBD1 the results were cell gain with vemurafenib 0.46; lactate per cell with vemurafenib 0.78; inactive.
With knock-down of CEP250, the screen gave cell gain with vemurafenib -0.03; lactate per cell with vemurafenib 2.62; inactive.
For ATP6V1F the deposit lists cell gain with vemurafenib 1.61; lactate per cell with vemurafenib 1.21; inactive.
Knock-down of L1CAM gave: cell gain with vemurafenib 0.4; lactate per cell with vemurafenib 2.6; inactive.
Silencing of KERA came out at: cell gain with vemurafenib 0.21; lactate per cell with vemurafenib 1.24; inactive.
Silencing of MTHFD1L resulted in: cell gain with vemurafenib 0.55; lactate per cell with vemurafenib 1.35; inactive.

Reprinted from above for reference:
RBPMS — cell gain with vemurafenib: 0.11; lactate per cell with vemurafenib: 1.15; Outcome: inactive
STPG4 — cell gain with vemurafenib: 0.18; lactate per cell with vemurafenib: 0.91; Outcome: active
GINS2 — cell gain with vemurafenib: 0.34; lactate per cell with vemurafenib: 2.27; Outcome: inactive
